Assay results as given in doi:10.1101/2021.08.30.458243.

Chains of the proteins cited; added tags and fusions are not shown. Lines headed by an entry give the natural chain unless they say otherwise; changes in a name come on top.
UniProt Q69ZS8: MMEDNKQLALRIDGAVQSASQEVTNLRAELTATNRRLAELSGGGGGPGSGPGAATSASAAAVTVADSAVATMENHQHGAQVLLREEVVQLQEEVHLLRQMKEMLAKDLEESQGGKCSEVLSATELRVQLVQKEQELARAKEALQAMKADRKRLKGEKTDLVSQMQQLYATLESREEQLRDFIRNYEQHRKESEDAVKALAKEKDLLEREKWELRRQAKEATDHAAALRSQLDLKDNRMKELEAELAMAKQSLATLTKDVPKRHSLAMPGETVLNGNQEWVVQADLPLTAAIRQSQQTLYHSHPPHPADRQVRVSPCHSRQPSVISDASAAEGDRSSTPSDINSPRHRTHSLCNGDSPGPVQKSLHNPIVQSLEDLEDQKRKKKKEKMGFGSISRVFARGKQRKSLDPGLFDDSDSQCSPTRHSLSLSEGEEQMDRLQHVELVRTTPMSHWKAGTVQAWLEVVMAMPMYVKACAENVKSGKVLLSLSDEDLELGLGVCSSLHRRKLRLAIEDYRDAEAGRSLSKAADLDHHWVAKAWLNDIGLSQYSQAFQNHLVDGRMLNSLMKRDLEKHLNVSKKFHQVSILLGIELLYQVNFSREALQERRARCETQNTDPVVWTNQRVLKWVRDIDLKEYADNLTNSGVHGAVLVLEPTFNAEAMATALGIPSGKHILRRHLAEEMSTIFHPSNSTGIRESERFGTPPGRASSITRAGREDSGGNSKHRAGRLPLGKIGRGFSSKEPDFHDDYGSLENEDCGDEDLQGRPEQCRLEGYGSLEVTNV
UniProt O08788: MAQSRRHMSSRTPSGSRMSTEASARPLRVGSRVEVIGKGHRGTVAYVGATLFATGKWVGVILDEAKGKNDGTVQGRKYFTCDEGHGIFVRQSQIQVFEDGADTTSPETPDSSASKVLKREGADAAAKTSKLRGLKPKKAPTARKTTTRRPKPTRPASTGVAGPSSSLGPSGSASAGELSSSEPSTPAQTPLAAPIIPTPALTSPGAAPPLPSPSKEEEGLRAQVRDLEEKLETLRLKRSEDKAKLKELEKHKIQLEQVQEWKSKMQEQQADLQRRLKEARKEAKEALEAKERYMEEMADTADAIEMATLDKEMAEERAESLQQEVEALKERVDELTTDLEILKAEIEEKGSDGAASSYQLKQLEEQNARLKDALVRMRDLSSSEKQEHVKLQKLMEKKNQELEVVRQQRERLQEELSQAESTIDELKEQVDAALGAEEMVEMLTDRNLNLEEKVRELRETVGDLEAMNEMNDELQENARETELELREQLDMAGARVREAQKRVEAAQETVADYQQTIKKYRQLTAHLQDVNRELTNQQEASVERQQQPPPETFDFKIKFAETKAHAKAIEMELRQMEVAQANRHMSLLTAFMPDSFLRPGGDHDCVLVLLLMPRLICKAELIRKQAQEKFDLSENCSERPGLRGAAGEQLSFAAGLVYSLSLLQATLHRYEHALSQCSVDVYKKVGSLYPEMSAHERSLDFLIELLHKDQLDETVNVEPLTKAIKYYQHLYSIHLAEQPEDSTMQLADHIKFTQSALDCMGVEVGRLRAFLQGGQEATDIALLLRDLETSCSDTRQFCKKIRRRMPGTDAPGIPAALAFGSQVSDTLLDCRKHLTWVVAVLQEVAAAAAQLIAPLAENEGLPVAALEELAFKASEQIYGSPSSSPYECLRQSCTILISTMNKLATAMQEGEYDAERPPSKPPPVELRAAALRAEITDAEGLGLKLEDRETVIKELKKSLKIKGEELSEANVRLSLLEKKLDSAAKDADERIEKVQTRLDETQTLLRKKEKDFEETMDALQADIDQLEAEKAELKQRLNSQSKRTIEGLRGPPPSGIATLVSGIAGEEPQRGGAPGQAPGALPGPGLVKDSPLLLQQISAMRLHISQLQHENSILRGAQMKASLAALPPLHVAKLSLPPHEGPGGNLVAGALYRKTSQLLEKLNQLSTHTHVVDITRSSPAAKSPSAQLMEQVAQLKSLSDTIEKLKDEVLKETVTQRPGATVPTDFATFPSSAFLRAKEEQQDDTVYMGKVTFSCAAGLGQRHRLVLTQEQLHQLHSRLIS
UniProt P22892: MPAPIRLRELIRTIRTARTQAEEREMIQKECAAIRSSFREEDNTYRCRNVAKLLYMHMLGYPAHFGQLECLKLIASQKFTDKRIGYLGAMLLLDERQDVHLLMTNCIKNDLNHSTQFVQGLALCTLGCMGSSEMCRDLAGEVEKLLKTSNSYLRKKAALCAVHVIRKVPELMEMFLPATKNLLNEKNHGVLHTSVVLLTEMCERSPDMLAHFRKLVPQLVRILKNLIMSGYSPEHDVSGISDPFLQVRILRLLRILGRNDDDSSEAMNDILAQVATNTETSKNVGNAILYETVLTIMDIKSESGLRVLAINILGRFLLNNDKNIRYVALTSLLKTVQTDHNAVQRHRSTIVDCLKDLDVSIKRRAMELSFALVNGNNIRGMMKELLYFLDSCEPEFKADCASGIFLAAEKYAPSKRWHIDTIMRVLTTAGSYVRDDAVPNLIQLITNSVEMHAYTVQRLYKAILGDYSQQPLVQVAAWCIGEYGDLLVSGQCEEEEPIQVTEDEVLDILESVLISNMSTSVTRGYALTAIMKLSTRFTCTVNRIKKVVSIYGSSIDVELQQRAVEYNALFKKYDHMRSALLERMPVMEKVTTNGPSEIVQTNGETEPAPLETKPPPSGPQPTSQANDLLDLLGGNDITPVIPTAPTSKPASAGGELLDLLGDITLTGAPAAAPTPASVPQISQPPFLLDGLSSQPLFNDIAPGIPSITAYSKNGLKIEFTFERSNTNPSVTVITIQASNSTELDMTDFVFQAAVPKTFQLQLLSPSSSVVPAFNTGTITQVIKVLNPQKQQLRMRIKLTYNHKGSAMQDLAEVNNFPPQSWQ

Legend:
[1] = target: T1, GST fused to full length EHD1 (UniProt Q9H4M9); assay: pull-down
T1 sequence: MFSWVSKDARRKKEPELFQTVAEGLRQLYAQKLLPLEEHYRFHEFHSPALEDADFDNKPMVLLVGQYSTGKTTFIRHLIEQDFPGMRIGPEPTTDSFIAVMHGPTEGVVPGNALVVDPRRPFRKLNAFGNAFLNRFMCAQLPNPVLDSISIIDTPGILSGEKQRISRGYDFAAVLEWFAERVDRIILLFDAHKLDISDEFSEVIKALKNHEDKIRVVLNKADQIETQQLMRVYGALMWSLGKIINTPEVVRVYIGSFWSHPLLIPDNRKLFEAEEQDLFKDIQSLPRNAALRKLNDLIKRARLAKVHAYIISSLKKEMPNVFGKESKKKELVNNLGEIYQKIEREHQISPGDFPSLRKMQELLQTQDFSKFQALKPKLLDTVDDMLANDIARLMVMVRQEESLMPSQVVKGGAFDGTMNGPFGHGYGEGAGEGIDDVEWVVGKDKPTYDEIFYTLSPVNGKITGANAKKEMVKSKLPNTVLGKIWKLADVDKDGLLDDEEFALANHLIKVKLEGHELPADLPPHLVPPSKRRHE

[2] = target: T2, GST fused to full length EHD3 (UniProt Q9NZN3); assay: pull-down
T2 sequence: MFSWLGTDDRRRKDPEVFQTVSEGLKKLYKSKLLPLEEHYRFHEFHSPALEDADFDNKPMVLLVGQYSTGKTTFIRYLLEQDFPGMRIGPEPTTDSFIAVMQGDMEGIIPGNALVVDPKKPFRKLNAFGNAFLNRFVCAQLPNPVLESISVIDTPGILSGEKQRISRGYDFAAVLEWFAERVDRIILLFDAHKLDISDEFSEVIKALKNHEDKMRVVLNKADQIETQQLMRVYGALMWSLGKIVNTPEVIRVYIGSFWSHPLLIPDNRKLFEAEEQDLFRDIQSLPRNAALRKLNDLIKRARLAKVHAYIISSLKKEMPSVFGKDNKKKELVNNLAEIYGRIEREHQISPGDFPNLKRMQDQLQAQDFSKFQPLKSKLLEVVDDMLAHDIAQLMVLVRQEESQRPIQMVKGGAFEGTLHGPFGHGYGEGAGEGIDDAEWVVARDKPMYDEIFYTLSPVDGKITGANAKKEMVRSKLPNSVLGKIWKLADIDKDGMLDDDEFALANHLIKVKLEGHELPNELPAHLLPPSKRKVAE

[3] = target: endogenous kazrin (MEF) (mouse (endogenous in MEF)) (UniProt Q69ZS8); assay: co-IP

binding [1] | binding [2] | binding [3] | Substance
binds | binds |  | 6xHis-kazrin C (human)
 |  | binds | dynactin component p150-glued, MEF (from UniProt O08788 1-1281)
 |  | binds | γ-adaptin, a component of the clathrin adaptor AP-1 (Adaptor Protein 1), MEF (from UniProt P22892 1-822)

No constants are given. Whether binding was seen depends on the method and setting. Binding calls can cover weak binding; strength is not graded here. For some of these results: Tags and fused reporters may be left off the sequences shown. For some of these results: In cells and extracts the contact can be indirect.
